No constants are given. Whether binding was seen depends on the method and setting. Binding seen in cells or lysates may run through a third protein. These calls come from enrichment with a bait or labelling near it, and not all partners need be listed. For part of these data: A no says only that the protein was not detected with the bait. Tags and fused reporters may be left off the sequences shown.
Experiments:
Test in all cases: affinity purification with mass spectrometry; 100 ug GST fusion protein on Glutathione-Sepharose 4B in Buffer L (50 mM Tris-HCl pH 8.0, 250 mM NaCl, 1 mM EDTA); total protein of 2-week-old Col-0 seedlings added, overnight at 4 C, washed 4 x 5 min; bound proteins seen by 10% SDS-PAGE, gel piece cut out, trypsin digest, LC-MS; only the target purified
[1] = biological target: T1, GST-tagged TSN1 fragment tu1 I-1 (1-380 amino acids), SN1 and SN2 domains (Arabidopsis thaliana) (UniProt Q8VZG7)
T1 sequence: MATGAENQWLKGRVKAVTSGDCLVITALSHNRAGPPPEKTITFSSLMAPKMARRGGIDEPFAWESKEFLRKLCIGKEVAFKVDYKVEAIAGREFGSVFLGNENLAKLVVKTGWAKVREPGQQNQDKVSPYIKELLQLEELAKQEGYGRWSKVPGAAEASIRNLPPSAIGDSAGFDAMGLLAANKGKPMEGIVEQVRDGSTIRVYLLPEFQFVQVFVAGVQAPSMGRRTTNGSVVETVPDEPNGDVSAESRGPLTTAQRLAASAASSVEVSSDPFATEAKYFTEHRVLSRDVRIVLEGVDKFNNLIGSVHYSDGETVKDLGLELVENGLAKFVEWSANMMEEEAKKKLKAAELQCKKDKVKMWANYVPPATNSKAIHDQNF

[2] = biological target: T2, GST-tagged TSN1 fragment tu1 I-2 (381-720 amino acids), SN3 and SN4 domains (Arabidopsis thaliana) (UniProt Q8VZG7)
T2 sequence: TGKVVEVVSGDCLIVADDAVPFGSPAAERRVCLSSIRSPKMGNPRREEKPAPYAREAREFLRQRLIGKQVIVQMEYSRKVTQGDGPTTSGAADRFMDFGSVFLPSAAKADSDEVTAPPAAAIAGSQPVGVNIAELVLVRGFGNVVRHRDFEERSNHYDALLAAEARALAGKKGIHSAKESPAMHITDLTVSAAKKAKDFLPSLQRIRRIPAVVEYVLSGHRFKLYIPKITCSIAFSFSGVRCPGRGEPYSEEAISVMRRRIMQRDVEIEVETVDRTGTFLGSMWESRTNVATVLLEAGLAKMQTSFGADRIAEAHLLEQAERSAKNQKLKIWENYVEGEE

[3] = biological target: T3, GST-tagged TSN1 fragment tu1 II (721-970 amino acids), C-terminal TSN (Tudor-SN) domain (Arabidopsis thaliana) (UniProt Q8VZG7)
T3 sequence: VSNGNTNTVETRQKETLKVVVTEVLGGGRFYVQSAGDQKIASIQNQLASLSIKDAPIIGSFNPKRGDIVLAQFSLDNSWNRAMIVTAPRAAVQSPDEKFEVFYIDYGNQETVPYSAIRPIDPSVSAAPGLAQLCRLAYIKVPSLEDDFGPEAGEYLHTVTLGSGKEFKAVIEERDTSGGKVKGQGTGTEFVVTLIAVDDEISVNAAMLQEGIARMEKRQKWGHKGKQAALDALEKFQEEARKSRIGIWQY

B1: RH31, DEAD-box RNA helicase (At5g63630), endogenous (protein, UniProt Q9FFQ1 1-716)
chain: MPLNFPLRIRFFAHSLSGTHLSYNTSSSVPLLFRIFSSGLNHFEFGSRINFSTRPNRDQPEFERRIRDGGEIRASKSLIEDEEELSNWVSGFRTGSSRGILKSDDEDEEDRSRGRNQEKRGIRNQVDSFRNKRYGGDRERGFNSRIQGKSSEASFRGRKETSFSRDREDEKGLRKREDLRLEDESSDEDVKSLVMGDIGDLLSEDDEEEDQDYDFLKKKAVSAFGFDKENVIEADKTRNANDSYLTKTRFDHYPLSPLSLKAIKDAGYETMTVVQEATLPIILKGKDVLAKAKTGTGKTVAFLLPSIEVVVKSPPTSPDNKRPPILALVICPTRELANQAATEANTLLKYHPSIGVQVVIGGTRLGLEQKRMQTNPCQILVATPGRLKDHIENTPGFATRLKGVKVLVLDEADHLLDMGFRKDIERIISAVPKERQTFLFSATVPEEVRQICLVALRRDHEFVNCVHEGTIETHQQVRQMHMIASLDRHFSLLYTLLREHIMGNVDYKVIVFCTTAMVTKLVADLLGELNLNVREIHSRKPQSYRTRVSNEFRKSKGLILVTSDVSARGVDYPDVTLVLQVGLPKDREQYIHRLGRTGRKGKEGEGILLLAPWEEYFLSSLKDLPITKSPLPSIDPETVKKVQKALCHVEMRNKEAAYQAWLGYYNSQKMIGRDKDRLVELANEFSRSMGLDNPPAIPKLILGKMGLKNVPGLRAK
binding [1]: no binding
binding [2]: no binding
binding [3]: binds
